Structures can show the parent of a compound that is named as a salt. At least one compound was matched to its structure with a doubt left. Some entries repeat one wording, which the source may state once for all of them.
Tested on: cancer cell lines
Assay: Growth inhibitory effects on the panel of cancer cell lines
Type: cell-based
Conditions: drug 10 μM, 72 hours, WST-1

Compound	inhibition effect on different cancer cell lines (in words)
NCCCCCC(=O)O [Aminocaproic acid (Amicar), Aminocaproic acid]	significant inhibition effect
CCOC(=O)C1=C(COCCN)NC(C)=C(C(=O)OC)C1c1ccccc1Cl (stereo not shown) [Amlodipine (Norvase), Amlodipine]	significant inhibition effect
CCOC(=O)c1c(CSc2ccccc2)n(C)c2cc(Br)c(O)c(CN(C)C)c12 [Arbidol HCl]	significant inhibition effect
COc1ccc(CN=c2[nH]c(N3CCC[C@H]3CO)ncc2C(=O)NCc2ncccn2)cc1Cl [Avanafil]	significant inhibition effect
CCOc1nc2cccc(C(=O)O)c2n1Cc1ccc(-c2ccccc2-c2nnn[nH]2)cc1 [Candesartan (Atacand), Candesartan]	significant inhibition effect
CCOC(=O)C(C)(C)Oc1ccc(Cl)cc1 [Clofibrate (Atromid-S), Clofibrate]	significant inhibition effect
CN1CCN(C2=Nc3cc(Cl)ccc3Nc3ccccc32)CC1 [Clozapine (Clozaril), Clozapine]	significant inhibition effect
CN1CC(=O)NC1=N [Creatinine]	significant inhibition effect
Nc1ncn([C@H]2C[C@H](O)[C@@H](CO)O2)c(=O)n1 [Decitabine]	significant inhibition effect
C[C@]12CC[C@H](O)C[C@H]1CC[C@@H]1[C@@H]2C[C@@H](O)[C@]2(C)[C@@H](C3=CC(=O)OC3)CC[C@]12O [Digoxigenin]	significant inhibition effect
CCOC(=O)C1=C(C)NC(C)=C(C(=O)OC)C1c1cccc(Cl)c1Cl (stereo not shown) [Felodipine (Plendil), Felodipine]	significant inhibition effect
CC(C)n1c(/C=C/C(O)CC(O)CC(=O)O)c(-c2ccc(F)cc2)c2ccccc21 (stereo not shown) [Fluvastatin sodium (Lescol), Fluvastatin sodium]	significant inhibition effect
CCC(=O)O[C@@H](O[P@](=O)(CCCCc1ccccc1)CC(=O)N1C[C@H](C2CCCCC2)C[C@H]1C(=O)O)C(C)C [Fosinopril sodium (Monopril), Fosinopril sodium]	significant inhibition effect
Nc1cc(N2CCCCC2)nc(N)[n+]1[O-] [Minoxidil]	significant inhibition effect
COC(=O)C1=C(C)NC(C)=C(C(=O)OC)C1c1ccccc1[N+](=O)[O-] [Nifedipine (Adalat), Nifedipine]	significant inhibition effect
COCCOC(=O)C1=C(C)NC(C)=C(C(=O)OC(C)C)C1c1cccc([N+](=O)[O-])c1 (stereo not shown) [Nimodipine (Nimotop), Nimodipine]	significant inhibition effect
COC(=O)C1=C(C)NC(C)=C(C(=O)OCC(C)C)C1c1ccccc1[N+](=O)[O-] (stereo not shown) [Nisoldipine (Sular), Nisoldipine]	significant inhibition effect
CCCNCC(O)COc1ccccc1C(=O)CCc1ccccc1 (stereo not shown) [Propafenone (Rytmonorm), Propafenone]	significant inhibition effect
CN(CCOc1ccc(CC2SC(=O)NC2=O)cc1)c1ccccn1 (stereo not shown) [Rosiglitazone HCl]	significant inhibition effect
CCCc1nn(C)c2c(=O)[nH]c(-c3cc(S(=O)(=O)N4CCN(C)CC4)ccc3OCC)nc12 [Sildenafil citrate]	significant inhibition effect
CCC(C)(C)C(=O)O[C@H]1C[C@@H](C)C=C2C=C[C@H](C)[C@H](CC[C@@H]3C[C@@H](O)CC(=O)O3)[C@H]21 [Simvastatin (Zocor), Simvastatin]	significant inhibition effect
CN1CC(=O)N2[C@H](c3ccc4c(c3)OCO4)c3[nH]c4ccccc4c3C[C@@H]2C1=O [Tadalafil (Cialis), Tadalafil]	significant inhibition effect

Source: patent publication US20170304388A1, “NEW INDICATION OF CARDIOVASCULAR DRUGS FOR PREPARATION OF CANCER INHIBITION PHARMACEUTICAL COMPOSITION” (LAUNX BIOMEDICAL CO., LTD., priority 2014, published 2017)
